# Source: the supplement of paper PMC10338343
# ± gives the standard deviation. This is a selection; strong and weak results do not stand in their true shares. Many entries were measured with a wide error.
# System: MILI (PIWIL2) piRISC loaded with Kctd7 piRNA (26 nt)
# Assay: pre-steady-state target cleavage rate (min^-1); MIWI and MILI are mouse PIWI proteins and EfPiwi is from a freshwater sponge; tags in brackets are library labels; higher = faster piRNA-guided slicing of the target
# Details: guide: Kctd7 piRNA 5'p-UGUUAAUCUCUCAGAGAAGGUGACAG; auxiliary factor: 500 nM mouse GTSF1
# In short: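 The pre-steady-state cleavage rate came from a burst-and-steady-state fit to pooled data from three Cleave-'n-Seq trials, in which uncleaved targets were sequenced and normalised to depth and to weakly complementary targets. Each reaction held 0.1 nM transcribed, DNA-blocked target RNA library and 1 nM active affinity-purified piRISC carrying one synthetic guide, with or without 500 nM GTSF1 partner protein, in HEPES–potassium acetate buffer at 33 °C for 0–8 or 0–960 min. k3 was capped at 0.0001 min^-1.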
row,Sequence,pre-steady-state target cleavage rate
1,UAGUGACAGUGGAACUCUGAGAGAUUAACU [g2:g16:cont:t1U],0.000348 ± 0.02
2,UAGUGACAGUCCUUCUCUCGAGAGAUUAACA,0.000858 ± 0.011
3,UAGUCUGUCACCUUCAGAGAGAGAUUAACA,0.0227 ± 0.0099
4,UAGUGACAGUGGAAGAGACUGAGGAUUAACA,0.000108 ± 0.029
5,UAGUCUGUCACCAUCUCUGAGAGAUUUACA,0.124 ± 0.018
6,UAGUGACAGACCUUCUCUCAGAGAUAAACA,0.00202 ± 0.006
7,UAGUGACAGUCGUUCUCUGAGUGAUUAACA,0.00111 ± 0.0078
8,UAGUGACAGUCGUUCUCUGACAGAUUAACA,0.000144 ± 0.026
9,UAGUGACAGACCUUCUCUGACAGAUUAUCA,0.00159 ± 0.0058
10,UAGUGACAGACCUUCUCUGACUCAUUAAGA,0.00034 ± 0.026
11,UAGUGACAGACCUUCUCUGAGACAAUAACA,0.000777 ± 0.0074
12,UAGUGACAGUGGAAGAGAGACAGAUUAACA,0.000201 ± 0.027
13,UAGUGACACACCUUCUCUCUGAGAUUUUGA,0.000798 ± 0.0098
14,UAGUGACACACCUUGUCUGAGAGAAUAACA,0.00208 ± 0.0081
15,UAGUGACACACCUUCUCUGAGAGAUUAACA [g2:g22:cont:t1A],0.178 ± 0.01
16,UAGUGACAGACCAUCUCUGAGAGAUUUUGA,0.000717 ± 0.011
17,UAGUGACAGACGUUCUCUCAGAGAUUAACA,0.0137 ± 0.0054
18,UAGUGACAGUGCUUCUCUGAGAGAUUAAAA,0.0041 ± 0.0043
19,UAGUGACAGAACCUUCUCUGAGAGAUUAACA,0.0771 ± 0.01
20,UAGUGACAGUGGAUCCUGAGAGAUUAACA,0.000101 ± 0.029
21,UAGUGACACACCUUCAGAGAGAGAUUAUGA,0.00119 ± 0.013
22,UAGUGACAGUGGUUCUCUGAGAGAUUACCA,0.000309 ± 0.015
23,UAGUGACAGACCUACUCUGAGAGAUUUUGA,0.000768 ± 0.011
24,UAGUGACAGUGGAACUCUGAGUGAUUAAGA,0.000756 ± 0.021

row,Sequence,pre-steady-state target cleavage rate
1,UAGUGUGUCACCUUCUCUGAGAGUAUAACA,0.181 ± 0.072
2,UAGUGUGUCAGGUUCUCUGAGAGAUUAUGA,0.00789 ± 0.0035
3,UAGUGACAGUGGUUCUGUGAGACAUUAACA,0.000222 ± 0.021
4,UAGUGACAGUCCUUCUCUGAGAGUUAACA,0.0004 ± 0.011
5,UAGUCUCACACCUUCUCUGAGAGAUAUUGA,0.00369 ± 0.0044
6,UAGUGACAGUCCAUCUCUGAGUGAUUAACA,0.000955 ± 0.0059
7,UAGUGACAGUGCUUCUCUGAGAGAUAUAGA,0.00012 ± 0.016
8,UAGUCUCUCACCUUCUCUGAGUGAUUAACA,0.00476 ± 0.0037
9,UAGUGACAGUGCUUCUGUGAGUGAUUAACA,0.00306 ± 0.0031
10,UAGUGACAGUCCUUCUCUGAGAGAAUAAGA,0.000203 ± 0.023
11,UAGUGACAGUGGAAGAGACACACAUUAACA,0.000216 ± 0.034
12,UAGUGACAGUGGAACUCUGGGAGAUUAACA,0.000276 ± 0.014
13,UAGUGACAGUGGAAGAGACAGAGGAUUAACA,0.000667 ± 0.011
14,UAGUGACAGUGGAAGACUGAGACGAUUAACA,0.000149 ± 0.018
15,UAGUGACAGUCCAUCUCAGAGAGAUUAACA,0.00278 ± 0.0045
16,UAGUGUGUCACCUUCUCUGGAGAGAUUAACA,0.00211 ± 0.0075
17,UAGUGACAGUCCUUCUACUGAGAGAUUAACA,0.00139 ± 0.0063
18,UAGUGACAGUGGUUCUCUGACACAUUAACA,0.000138 ± 0.029
19,UAGUGACAGUGCUUCUCUCACAGAUUAACA,0.00149 ± 0.0058
20,UAGUGACAGUCCUUCUCAGAGAGAUUAUGA,0.00157 ± 0.0058
21,UAGUGACUCACCUUCUCUGAGUGAUUAACA,0.00117 ± 0.0059
22,UAGUGACAGUGGAAGAGACUCAGAUUUACA,0.00033 ± 0.0096
23,UAGUGACAGUGGUUACUCUGAGAGAUUAACA,0.000618 ± 0.0075
24,UAGUGAGUCACCUUCUGUGAGUGAUUAACA,0.00282 ± 0.0045

# 4 consecutive records already listed:
row,Sequence,pre-steady-state target cleavage rate
9,UAGUGACAGUGCUUCUGUGAGUGAUUAACA,0.00306 ± 0.0031
10,UAGUGACAGUCCUUCUCUGAGAGAAUAAGA,0.000203 ± 0.023
11,UAGUGACAGUGGAAGAGACACACAUUAACA,0.000216 ± 0.034
12,UAGUGACAGUGGAACUCUGGGAGAUUAACA,0.000276 ± 0.014

# Following part

row,Sequence,pre-steady-state target cleavage rate
1,UAGUGACAGUGGAAGGCUGAGAGAUUAACA,0.000167 ± 0.021
2,UAGUGAGUCACCUUCUGAGAGAGAUUAACA,0.074 ± 0.011
3,UAGUGACAGACCUUCUCUGAGACAUUUUGA,0.000466 ± 0.018
4,UAGUGACAGUCCUACUCUGAGAGAUUAUGA,0.000363 ± 0.0088
5,UAGUGACAGUGGAAGAGUGAGUCUUUAACA,0.000206 ± 0.027
6,UAGUGACAGUCCUUCUCUGAGAGUUUAUCA,0.000492 ± 0.011
7,UAGUCCUGUCACCUUCUCUGAGAGAUUAACA,0.275 ± 0.026
8,UAGUGACUCUCCUUCUCUGAGAGAUUUUGA,0.00286 ± 0.0044
9,UAGUGACACUCCUUCUCUGAGAGAUAUUGA,0.00127 ± 0.0069
10,UAGUGUCAGACCUUCUCUGAGAGAUUUUGA,0.000952 ± 0.01
11,UAGUGAGUCACCUUCUCUGAGUCAUUAUGA,0.00101 ± 0.011
12,UAGUGAGUGUGCUUCUCUGAGAGAUUAUGA,0.00163 ± 0.0048
13,UAGUGACAGUCCUACUCUGACAGAUUAACA,0.000129 ± 0.022
14,UAGUGACAGUGGAAGAGACAGAGAUUUAACA,0.000299 ± 0.02
15,UAGUGACACACCUUCUCUGAGGAUUAACA,0.00287 ± 0.0048
16,UAGUGACAGUCCUACUCAGAGAGAUUAACA,0.00159 ± 0.0048
17,UAGUGACAGUGGUUCUCUGUGACAUUAACA,0.000309 ± 0.025
18,UAGUGAGUCACCUUCUGACUCUCUAAUUGA [g15:g24:cont:t1A],0.000555 ± 0.017
19,UAGUGACAGUGGAAGUCUGAGACGAUUAACA,0.000269 ± 0.025
20,UAGUGUGUCACCUUCUCUGACAGAAUAACA,0.00162 ± 0.0058
21,UAGUGACACACCUUCUCUGUGUGAUUAACA,0.00236 ± 0.0064
22,UAGUGACAGACCUUCUCUGACAGAUUUACA,0.0017 ± 0.0058
23,UAGUGACAGUGCUUCUCUGAGAGAAUUACA,0.000111 ± 0.029
24,UAGUGACAGUGGAUCUCUGACACAUUAACA,0.00041 ± 0.012
